Taken from: PubChem BioAssay AID504786 (Drosophila RNAi Screening Center, 2011)
The screen tested about 21,000 reagents; shown is an unselected part of those with a known target gene and a result. 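Primary screen; positive scores mean lost reporter signal, so the sign may be inverted from the usual convention.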 Names joined by + are all predicted targets of the reagent. Further read-outs or replicates are left out here.

- Purpose: 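Knock-downs reducing HIF reporter induction by the iron chelator DFO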 (primary screen)
- System: Drosophila S2 cells with a stable HIF luciferase reporter
- Reagent: long dsRNA against Drosophila genes, about 0.2 µg dsRNA per well of a 384-well plate
- Timing: three days of knock-down, then 20 h of DFO before reading
- Treatment: desferrioxamine (DFO) at 100 µM, an iron chelator that mimics hypoxia, for 20 h
- Measurement: 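Firefly luciferase driven by the mouse ldh-a hypoxia-response element, measured after 20 h of 100 µM DFO; z-scores per plate, higher means more signal lost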
- Scale: z-score: higher = stronger loss of HIF reporter signal

z-score, replicate 1	Target gene	DRSC id
-0.5	CG34267	DRSC07881
-0.1	CG2680	DRSC18466
-0.3	CG13297	DRSC09971
-0.3	arr (arrow)	DRSC07451
-0.1	Cpr49Ah (Cuticular protein 49Ah)	DRSC07204
-0.3	vap (vacuolar peduncle)	DRSC20275
-0.1	CG13601	DRSC14604
-0.4	EcR (Ecdysone receptor)	DRSC04906
0.5	EcR (Ecdysone receptor)	DRSC04910
-0.2	Cadps (Calcium-dependent secretion activator)	DRSC21057
-0.3	CG15465	DRSC18048
1.1	mRpL15 (mitochondrial ribosomal protein L15)	DRSC11771
-0.3	CG8945	DRSC20129
-0.3	CG8945	DRSC20130
-0.3	CG11438	DRSC11660
-0.2	yellow-d2	DRSC04591
1.8	mRpL18 (mitochondrial ribosomal protein L18)	DRSC06142
-0.2	CG4362	DRSC15567
-0.4	CG31809	DRSC01561
2.2	Rpt3R (Regulatory particle triple-A ATPase 3-related)	DRSC16501
-0.3	RPA1 (Replication protein A1)	DRSC16830
-0.3	Tmem63 (Transmembrane protein 63)	DRSC06063
-0.2	DIP-gamma (Dpr-interacting protein gamma)	DRSC14873
-0.3	Inx5 (Innexin 5)	DRSC20051
-0.3	CG15387	DRSC00401
-0.1	Acox57D-p (acyl-Coenzyme A oxidase at 57D proximal)	DRSC04560
0.2	CG11679	DRSC19415
-0.3	CG5149	DRSC02819
-0.4	Oatp33Ea (Organic anion transporting polypeptide 33Ea)	DRSC02859
-0.2	CG1724	DRSC20548
-0.3	CG3640	DRSC04399
-0.2	CG16998	DRSC10235
-0.3	Obp56a (Odorant-binding protein 56a)	DRSC06085
-0.5	CG9945	DRSC07347
-0.4	msn (misshapen)	DRSC07990
-0.4	msn (misshapen)	DRSC08498
-0.4	CG5327	DRSC06930
0	CG7239	DRSC03038
-0.4	slgA (sluggish A)	DRSC20586
0	CG30281	DRSC04528
-0.4	Lis-1 (Lissencephaly-1)	DRSC07459
0.9	Taf4 (TBP-associated factor 4)	DRSC11297
1.2	tow (target of wingless)	DRSC10192
-0.3	CG6933	DRSC10751
-0.4	heca (headcase)	DRSC16964
-0.3	CG10939	DRSC06019
-0.2	CG11291	DRSC04097
0.1	alpha-PheRS (Phenylalanyl-tRNA synthetase, alpha-subunit)	DRSC18224
-0.3	tud (tudor)	DRSC04719
1.2	lbe (ladybird early)	DRSC16985
-0.2	Ank (Ankyrin)	DRSC17127
-0.5	Ald1 (Aldolase 1)	DRSC14109
-0.1	Phs (Phaser)	DRSC10827
-0.8	VhaAC45RP (VhaAC45-related protein)	DRSC15423
-0.3	unc-104 (uncoordinated-104)	DRSC07710
-0.3	CG1812	DRSC20557
-0.4	CG8701	DRSC07237
-0.3	Sgf29 (SAGA-associated factor 29kDa)	DRSC04076
0.3	TwdlW (TweedleW)	DRSC15540
0.6	Ssu72 (Ssu72 CTD phosphatase)	DRSC19572
0.9	CG15695	DRSC15117
0	Mur29B (Mucin related 29B)	DRSC01018
-0.2	Mur29B (Mucin related 29B)	DRSC02376
-0.1	CG9733	DRSC16549
-0.2	CG5026	DRSC10470
-0.2	CG42240	DRSC18097
-0.2	AQP (aquaporin)	DRSC06122
-0.4	cmb (combover)	DRSC09790
-0.3	CG7720	DRSC16306
-0.7	CG7720	DRSC16307
-0.2	Rgk3 (Rad, Gem/Kir family member 3)	DRSC04250
-0.3	Rgk3 (Rad, Gem/Kir family member 3)	DRSC04251
-0.2	Rgk3 (Rad, Gem/Kir family member 3)	DRSC04254
-0.2	Rgk3 (Rad, Gem/Kir family member 3)	DRSC04255
0	CG41099	DRSC21049
-0.2	CG41099	DRSC21051
0.5	Rap2l (Ras-associated protein 2-like)	DRSC04646
-0.3	CG31013	DRSC16542
-0.1	CG12637	DRSC17845
0.2	CG33514	DRSC08471
-0.4	CG33514	DRSC08472
-0.4	sordd2 + sordd1	DRSC20136
-0.4	jar (jaguar)	DRSC16974

9 of these entries in another layout.
{"Target gene":"EcR (Ecdysone receptor)","DRSC id":"DRSC04910","z-score, replicate 1":0.5}
{"Target gene":"Cadps (Calcium-dependent secretion activator)","DRSC id":"DRSC21057","z-score, replicate 1":-0.2}
{"Target gene":"CG15465","DRSC id":"DRSC18048","z-score, replicate 1":-0.3}
{"Target gene":"mRpL15 (mitochondrial ribosomal protein L15)","DRSC id":"DRSC11771","z-score, replicate 1":1.1}
{"Target gene":"CG8945","DRSC id":"DRSC20129","z-score, replicate 1":-0.3}
{"Target gene":"CG8945","DRSC id":"DRSC20130","z-score, replicate 1":-0.3}
{"Target gene":"CG11438","DRSC id":"DRSC11660","z-score, replicate 1":-0.3}
{"Target gene":"yellow-d2","DRSC id":"DRSC04591","z-score, replicate 1":-0.2}
{"Target gene":"mRpL18 (mitochondrial ribosomal protein L18)","DRSC id":"DRSC06142","z-score, replicate 1":1.8}
